Experimental data as given in patent US6372793B1, “Method for treatment of a neurological disease characterized by impaired neuromodulator function” (Florida Agricultural & Mechanical University, priority 1999, dated 2002).
At least one compound was matched to its structure with a doubt left.

System: SAM-induced tremors
Assay: Effect of L-DOPA, SAH and NADA on SAM-induced tremors
Format: in vivo, rat
Settings: 1 mmmol NADA or SAH icv followed by 1 mmmol SAM, or SAM alone; 20 min
Description: Rats were cannulated for subsequent injections into the lateral ventricle as previously described (Charlton and Mack, 1994). Briefly, each rat was anesthetized with 400 mg/kg of chloral hydrate. A stainless steel guide cannula was stereotaxically placed 1.5 mm lateral and 0.6 mm caudal to the Bregma with the tip extended to the inner surface of the cranium, above the dura mater. At least 2 days following cannulation, injections were made through the cannula into the lateral ventricle with a 26 gauge insertion cannula, pre-measured to descend 5 mm from the surface of the skull into the lateral ventricle. Each injected rat was put in a cage which was then placed on the sensor assembly of the Tremor-Scan Monitor. The recording parameters were set according to the manufacturer's instructions by adjusting the Gain on the instrument to 4 which insured that most of the signals with large or small amplitudes remained within the detection limit or not reduced to the baseline respectively, as viewed on the computer monitoring screen. […]
Cannulated rats were injected either with PBS (5 mml), L-DOPA (1.5 mmmol), SAH (1.0 mmmol) or NADA (1.0 mmmol) followed by an injection of either 0.75 or 1.0 mmmol of SAM. […] They were then monitored for tremors on the Tremor Monitor for a period of 20 min.

## C[S+](CC[C@H](N)C(=O)O)C[C@H]1O[C@@H](n2cnc3c(N)ncnc32)[C@H](O)[C@@H]1O (stereo partly drawn) [SAM, S-Adenosyl-L-methionine]
  number of tremors: 63±±29
